# Results taken from paper PMC9462472.
# The chains behind the UniProt entries cited, without tags or fusion partners.
# UniProt Q62407: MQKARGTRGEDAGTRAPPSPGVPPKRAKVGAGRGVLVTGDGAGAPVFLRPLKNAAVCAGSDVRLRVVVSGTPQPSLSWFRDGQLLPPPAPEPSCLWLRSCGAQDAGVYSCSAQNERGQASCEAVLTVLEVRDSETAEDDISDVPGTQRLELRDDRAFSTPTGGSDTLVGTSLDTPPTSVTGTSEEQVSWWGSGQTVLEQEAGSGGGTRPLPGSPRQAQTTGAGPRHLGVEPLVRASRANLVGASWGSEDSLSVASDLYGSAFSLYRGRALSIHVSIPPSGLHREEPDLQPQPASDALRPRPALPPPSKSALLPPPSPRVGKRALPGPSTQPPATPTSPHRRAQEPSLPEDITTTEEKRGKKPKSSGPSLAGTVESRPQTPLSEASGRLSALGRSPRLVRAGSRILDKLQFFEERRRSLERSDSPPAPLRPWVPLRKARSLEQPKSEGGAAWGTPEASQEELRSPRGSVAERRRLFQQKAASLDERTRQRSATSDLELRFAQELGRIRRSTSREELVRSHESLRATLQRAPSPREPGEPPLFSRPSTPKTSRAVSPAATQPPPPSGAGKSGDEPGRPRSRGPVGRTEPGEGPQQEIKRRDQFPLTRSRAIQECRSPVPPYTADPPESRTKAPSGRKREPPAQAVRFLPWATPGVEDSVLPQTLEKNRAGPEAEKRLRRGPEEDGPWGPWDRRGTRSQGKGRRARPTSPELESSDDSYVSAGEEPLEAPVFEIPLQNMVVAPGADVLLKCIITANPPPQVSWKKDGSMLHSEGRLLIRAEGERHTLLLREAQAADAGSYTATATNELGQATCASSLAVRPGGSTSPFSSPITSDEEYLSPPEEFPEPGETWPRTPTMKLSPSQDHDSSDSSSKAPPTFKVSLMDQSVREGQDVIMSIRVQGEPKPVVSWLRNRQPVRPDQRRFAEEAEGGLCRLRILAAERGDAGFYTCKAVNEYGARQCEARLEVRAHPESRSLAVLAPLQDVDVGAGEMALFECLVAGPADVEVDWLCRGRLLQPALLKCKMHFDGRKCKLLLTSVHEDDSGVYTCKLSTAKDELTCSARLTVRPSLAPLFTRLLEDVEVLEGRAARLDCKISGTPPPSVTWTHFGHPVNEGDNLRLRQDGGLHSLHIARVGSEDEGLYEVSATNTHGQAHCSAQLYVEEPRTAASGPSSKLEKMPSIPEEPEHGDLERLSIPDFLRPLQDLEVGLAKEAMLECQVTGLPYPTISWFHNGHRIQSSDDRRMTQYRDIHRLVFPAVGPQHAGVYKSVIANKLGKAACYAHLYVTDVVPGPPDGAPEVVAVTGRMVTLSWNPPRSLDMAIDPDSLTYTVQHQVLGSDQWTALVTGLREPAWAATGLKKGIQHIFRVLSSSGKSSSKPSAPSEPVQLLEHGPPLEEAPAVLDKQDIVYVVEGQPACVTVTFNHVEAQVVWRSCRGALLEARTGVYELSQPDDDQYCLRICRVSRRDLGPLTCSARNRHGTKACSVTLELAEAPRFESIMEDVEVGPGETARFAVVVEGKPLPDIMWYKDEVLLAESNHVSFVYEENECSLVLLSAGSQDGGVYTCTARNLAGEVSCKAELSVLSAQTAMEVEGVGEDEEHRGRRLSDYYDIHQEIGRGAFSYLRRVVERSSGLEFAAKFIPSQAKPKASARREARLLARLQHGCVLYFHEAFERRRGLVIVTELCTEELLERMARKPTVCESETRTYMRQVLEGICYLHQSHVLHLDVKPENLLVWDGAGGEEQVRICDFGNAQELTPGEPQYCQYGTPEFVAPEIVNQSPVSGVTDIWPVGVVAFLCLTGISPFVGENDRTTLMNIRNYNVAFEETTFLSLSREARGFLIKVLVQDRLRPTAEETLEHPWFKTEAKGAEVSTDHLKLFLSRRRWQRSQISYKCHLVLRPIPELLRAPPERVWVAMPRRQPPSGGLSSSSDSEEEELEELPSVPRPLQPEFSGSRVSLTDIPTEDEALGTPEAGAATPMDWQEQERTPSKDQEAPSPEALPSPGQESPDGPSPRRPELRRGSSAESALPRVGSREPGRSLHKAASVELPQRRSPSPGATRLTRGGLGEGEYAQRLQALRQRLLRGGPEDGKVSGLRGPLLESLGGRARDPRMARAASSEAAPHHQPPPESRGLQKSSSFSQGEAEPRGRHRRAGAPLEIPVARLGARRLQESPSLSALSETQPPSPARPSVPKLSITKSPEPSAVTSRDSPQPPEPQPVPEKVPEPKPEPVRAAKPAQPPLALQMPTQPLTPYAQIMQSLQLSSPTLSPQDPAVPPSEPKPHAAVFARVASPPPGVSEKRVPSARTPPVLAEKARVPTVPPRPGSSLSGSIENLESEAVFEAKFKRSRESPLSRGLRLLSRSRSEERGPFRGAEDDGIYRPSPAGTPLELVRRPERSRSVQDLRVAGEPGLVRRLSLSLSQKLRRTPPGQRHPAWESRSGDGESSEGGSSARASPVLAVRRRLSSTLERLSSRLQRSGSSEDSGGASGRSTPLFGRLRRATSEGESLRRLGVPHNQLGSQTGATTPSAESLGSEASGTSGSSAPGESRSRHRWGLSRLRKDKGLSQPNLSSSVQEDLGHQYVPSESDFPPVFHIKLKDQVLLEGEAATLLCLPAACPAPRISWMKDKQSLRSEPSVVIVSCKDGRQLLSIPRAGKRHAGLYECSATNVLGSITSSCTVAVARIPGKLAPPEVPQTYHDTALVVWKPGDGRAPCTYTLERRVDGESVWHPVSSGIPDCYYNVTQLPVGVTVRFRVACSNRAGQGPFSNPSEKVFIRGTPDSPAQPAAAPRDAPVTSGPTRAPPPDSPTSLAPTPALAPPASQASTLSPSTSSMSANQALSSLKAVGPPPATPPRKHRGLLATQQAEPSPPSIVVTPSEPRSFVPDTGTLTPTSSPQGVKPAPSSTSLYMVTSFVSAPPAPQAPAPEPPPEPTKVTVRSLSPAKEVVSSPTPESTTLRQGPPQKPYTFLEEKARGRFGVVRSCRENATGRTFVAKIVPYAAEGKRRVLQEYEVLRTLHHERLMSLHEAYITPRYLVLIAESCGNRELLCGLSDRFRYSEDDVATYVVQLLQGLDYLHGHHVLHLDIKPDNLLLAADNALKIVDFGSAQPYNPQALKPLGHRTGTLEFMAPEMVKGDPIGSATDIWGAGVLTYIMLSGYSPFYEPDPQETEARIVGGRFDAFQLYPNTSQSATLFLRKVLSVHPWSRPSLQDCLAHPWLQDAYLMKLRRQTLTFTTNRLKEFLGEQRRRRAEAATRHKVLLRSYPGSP
# No constants are given. Whether binding was seen depends on the method and setting. In cells and extracts the contact can be indirect. Some results given as binding are weak or reduced against the parent protein; the word gives no strength.
# B1: dynamin-2 (protein, UniProt P39054 1-870)
# chain: MGNRGMEELIPLVNKLQDAFSSIGQSCHLDLPQIAVVGGQSAGKSSVLENFVGRDFLPRGSGIVTRRPLILQLIFSKTEYAEFLHCKSKKFTDFDEVRQEIEAETDRVTGTNKGISPVPINLRVYSPHVLNLTLIDLPGITKVPVGDQPPDIEYQIKDMILQFISRESSLILAVTPANMDLANSDALKLAKEVDPQGLRTIGVITKLDLMDEGTDARDVLENKLLPLRRGYIGVVNRSQKDIEGKKDIRAALAAERKFFLSHPAYRHMADRMGTPHLQKTLNQQLTNHIRESLPTLRSKLQSQLLSLEKEVEEYKNFRPDDPTRKTKALLQMVQQFGVDFEKRIEGSGDQVDTLELSGGARINRIFHERFPFELVKMEFDEKDLRREISYAIKNIHGVRTGLFTPDLAFEAIVKKQVVKLKEPCLKCVDLVIQELISTVRQCTSKLSSYPRLREETERIVTTYIREREGRTKDQILLLIDIEQSYINTNHEDFIGFANAQQRSTQLNKKRAIPNQGEILVIRRGWLTINNISLMKGGSKEYWFVLTAESLSWYKDEEEKEKKYMLPLDNLKIRDVEKGFMSNKHVFAIFNTEQRNVYKDLRQIELACDSQEDVDSWKASFLRAGVYPEKDQAENEDGAQENTFSMDPQLERQVETIRNLVDSYVAIINKSIRDLMPKTIMHLMINNTKAFIHHELLAYLYSSADQSSLMEESAEQAQRRDDMLRMYHALKEALNIIGDISTSTVSTPVPPPVDDTWLQNTSGHSPTPQRRPVSSVHPPGRPPAVRGPTPGPPLIPMPVGATSSFSAPPIPSRPGPQSVFANNDPFSAPPQIPSRPARIPPGIPPGVPSRRAPAAPSRPTIIRPAEPSLLD
# Molecular target: Striated preferentially expressed protein kinase, SPEG-β isoform (mouse (endogenous in C2C12 myotubes and mouse muscle)) (UniProt Q62407)
# Test: co-IP; endogenous proteins in lysates of differentiated C2C12 myotubes, soleus and triceps; IP with anti-SPEG or anti-DNM2 antibody at 4°C for 12 to 24 hours, Dynabead Protein G beads, washed 3 times with co-IP buffer with 0.1% CHAPS; immunoblot
binder,measurement,value
B1,binding,binds
